Results: PMC5037395
For at least one entry, the source does not settle the construct or the ends of the probe. For some assays here: No signal at the amounts used counts as a negative. For some assays here: At least one verdict rests on a figure or table, not on a statement of the authors.

Key:
[1] = tested on: SMAR1; assay: competition with a labelled probe; conditions: Oligo EMSA: 50 mM Tris pH 7.5, poly(dI-dC), room temperature 1 h, 8% native PAGE 4 C, recombinant protein, single-stranded DNA
[2] = tested on: SMAR1; assay: EMSA; conditions: poly(dI-dC); Oligo EMSA: 50 mM Tris pH 7.5, poly(dI-dC), room temperature 1 h, 8% native PAGE 4 C; recombinant protein; label: Cy5 at 5' and 3' ends; single-stranded DNA
[3] = tested on: SMAR1; assay: ITC; conditions: 25 C, significant dH, no Kd in text; ITC: 25 C, buffer not stated; recombinant protein; single-stranded DNA
[4] = EMSA vs Cy5-(TG)10 and Cy5-(TC)10, poly(dI-dC)

Q: Does ATATATATATATATATATAT [(AT)10] bind [1, 4]?
A: no binding

Q: Does TGTGTGTGTGTGTGTGTGTG [(TG)10 Cy5] bind [2]?
A: binds

Q: Does TCTCTCTCTCTCTCTCTCTC [(TC)10 untagged] bind ([1]; EMSA vs Cy5 oligo, poly(dI-dC))?
A: binds

Q: Does GCGCGCGCGCGCGCGCGCGC [(GC)10] bind [1, 4]?
A: no binding

Q: Does TCTGTCTGTCTGTCTGTCTG [(TCTG)5] bind ([1]; EMSA vs Cy5-(TG)10 and Cy5-(TC)10, poly(dI-dC), text: only (TC)10 and (TG)10 compete)?
A: no binding

Q: Does TCTCTCTCTCTCTCTCTCTC [(TC)10 Cy5] bind [2]?
A: binds

Q: Does TGTGTGTGTGTGTGTGTGTG [(TG)10 untagged] bind [3]?
A: binds

Q: Does TGTGTGTGTGTGTGTGTGTG [(TG)10 untagged] bind ([1]; EMSA vs Cy5 oligo, poly(dI-dC))?
A: binds
